Source: the supplement of paper PMC10849652
Some of the results follow.

By UniProt entry, the sequences of proteins in these tests, tags left out. Where a name states a change or a piece, a line headed by the entry shows the natural chain unless it says otherwise.
UniProt Q7L576: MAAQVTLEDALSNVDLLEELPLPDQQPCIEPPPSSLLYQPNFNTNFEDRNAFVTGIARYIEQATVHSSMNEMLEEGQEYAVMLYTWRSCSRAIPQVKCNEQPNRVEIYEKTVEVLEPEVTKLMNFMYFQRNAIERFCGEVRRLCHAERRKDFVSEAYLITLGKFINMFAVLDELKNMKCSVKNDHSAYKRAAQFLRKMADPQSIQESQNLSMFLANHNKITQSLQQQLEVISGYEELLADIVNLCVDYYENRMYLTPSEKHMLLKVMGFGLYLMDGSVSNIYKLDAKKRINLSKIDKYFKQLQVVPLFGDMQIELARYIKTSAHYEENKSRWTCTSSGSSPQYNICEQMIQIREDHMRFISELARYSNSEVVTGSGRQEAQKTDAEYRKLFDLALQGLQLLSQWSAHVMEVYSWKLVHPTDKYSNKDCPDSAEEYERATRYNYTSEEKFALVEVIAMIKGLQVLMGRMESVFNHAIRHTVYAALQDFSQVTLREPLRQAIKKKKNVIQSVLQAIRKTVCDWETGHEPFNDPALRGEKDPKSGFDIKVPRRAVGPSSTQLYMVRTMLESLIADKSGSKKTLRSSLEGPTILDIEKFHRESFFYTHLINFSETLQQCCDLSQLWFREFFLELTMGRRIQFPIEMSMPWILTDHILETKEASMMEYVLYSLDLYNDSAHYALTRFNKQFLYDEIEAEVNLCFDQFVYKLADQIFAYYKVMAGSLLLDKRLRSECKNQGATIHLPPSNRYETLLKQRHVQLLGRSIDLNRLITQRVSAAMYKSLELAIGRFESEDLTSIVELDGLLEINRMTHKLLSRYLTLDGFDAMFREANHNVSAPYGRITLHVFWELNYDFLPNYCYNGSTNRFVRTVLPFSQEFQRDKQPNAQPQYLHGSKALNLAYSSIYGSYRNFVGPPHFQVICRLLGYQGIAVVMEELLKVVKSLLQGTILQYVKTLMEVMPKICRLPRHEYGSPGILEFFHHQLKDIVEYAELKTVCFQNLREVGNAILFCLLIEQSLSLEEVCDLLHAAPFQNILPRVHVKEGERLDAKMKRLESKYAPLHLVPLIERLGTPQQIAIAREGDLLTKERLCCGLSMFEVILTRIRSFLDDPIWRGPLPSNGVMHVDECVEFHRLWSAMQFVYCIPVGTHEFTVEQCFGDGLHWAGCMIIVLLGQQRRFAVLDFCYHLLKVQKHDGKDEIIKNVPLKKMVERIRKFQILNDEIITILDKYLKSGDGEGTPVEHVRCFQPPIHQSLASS
UniProt Q8NBI2: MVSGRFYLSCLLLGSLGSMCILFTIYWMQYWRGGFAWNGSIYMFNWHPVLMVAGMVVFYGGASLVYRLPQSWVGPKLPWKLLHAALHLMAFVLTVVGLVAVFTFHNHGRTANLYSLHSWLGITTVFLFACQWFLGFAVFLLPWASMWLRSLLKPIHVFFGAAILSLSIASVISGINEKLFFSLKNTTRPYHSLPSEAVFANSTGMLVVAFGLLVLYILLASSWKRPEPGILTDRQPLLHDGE
UniProt Q16850: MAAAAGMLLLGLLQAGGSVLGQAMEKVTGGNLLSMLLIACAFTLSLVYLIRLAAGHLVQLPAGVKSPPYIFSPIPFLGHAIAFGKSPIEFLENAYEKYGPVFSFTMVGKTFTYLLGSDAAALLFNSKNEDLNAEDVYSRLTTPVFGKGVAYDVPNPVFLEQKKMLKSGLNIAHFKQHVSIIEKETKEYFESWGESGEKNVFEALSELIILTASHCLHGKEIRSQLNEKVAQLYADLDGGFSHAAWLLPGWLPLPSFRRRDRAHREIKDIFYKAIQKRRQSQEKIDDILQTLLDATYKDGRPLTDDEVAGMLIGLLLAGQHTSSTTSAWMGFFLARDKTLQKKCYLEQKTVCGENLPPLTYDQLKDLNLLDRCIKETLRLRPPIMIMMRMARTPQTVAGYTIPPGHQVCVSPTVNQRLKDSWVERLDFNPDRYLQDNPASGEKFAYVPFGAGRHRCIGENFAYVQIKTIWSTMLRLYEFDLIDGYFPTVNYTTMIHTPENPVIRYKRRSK
UniProt Q9H467: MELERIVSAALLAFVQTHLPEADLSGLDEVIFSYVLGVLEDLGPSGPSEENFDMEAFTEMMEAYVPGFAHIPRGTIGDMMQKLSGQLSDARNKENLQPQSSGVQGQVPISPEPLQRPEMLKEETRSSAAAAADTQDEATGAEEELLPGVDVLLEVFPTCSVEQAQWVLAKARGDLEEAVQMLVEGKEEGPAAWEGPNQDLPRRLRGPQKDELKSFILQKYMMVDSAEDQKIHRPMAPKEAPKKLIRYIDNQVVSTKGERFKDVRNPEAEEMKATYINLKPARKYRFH
UniProt Q9UER7, whole entry, looked up: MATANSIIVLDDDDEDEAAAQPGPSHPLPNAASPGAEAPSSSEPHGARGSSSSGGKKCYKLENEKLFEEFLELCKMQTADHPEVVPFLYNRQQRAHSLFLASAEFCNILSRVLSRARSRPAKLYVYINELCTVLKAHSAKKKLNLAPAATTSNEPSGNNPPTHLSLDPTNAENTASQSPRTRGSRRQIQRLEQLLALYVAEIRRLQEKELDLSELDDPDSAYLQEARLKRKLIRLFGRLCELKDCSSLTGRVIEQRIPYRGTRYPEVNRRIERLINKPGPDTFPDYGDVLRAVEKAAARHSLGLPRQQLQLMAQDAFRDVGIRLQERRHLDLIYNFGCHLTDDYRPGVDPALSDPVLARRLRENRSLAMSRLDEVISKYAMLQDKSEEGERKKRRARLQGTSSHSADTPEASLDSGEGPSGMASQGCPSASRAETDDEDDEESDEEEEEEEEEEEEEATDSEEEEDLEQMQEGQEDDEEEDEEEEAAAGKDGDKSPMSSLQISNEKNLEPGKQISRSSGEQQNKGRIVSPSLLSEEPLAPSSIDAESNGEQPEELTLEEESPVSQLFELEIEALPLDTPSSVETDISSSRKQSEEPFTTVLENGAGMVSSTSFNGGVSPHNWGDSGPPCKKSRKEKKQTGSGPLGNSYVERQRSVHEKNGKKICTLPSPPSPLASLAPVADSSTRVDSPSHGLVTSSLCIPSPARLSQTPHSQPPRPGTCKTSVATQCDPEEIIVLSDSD
UniProt P11182, whole entry, looked up: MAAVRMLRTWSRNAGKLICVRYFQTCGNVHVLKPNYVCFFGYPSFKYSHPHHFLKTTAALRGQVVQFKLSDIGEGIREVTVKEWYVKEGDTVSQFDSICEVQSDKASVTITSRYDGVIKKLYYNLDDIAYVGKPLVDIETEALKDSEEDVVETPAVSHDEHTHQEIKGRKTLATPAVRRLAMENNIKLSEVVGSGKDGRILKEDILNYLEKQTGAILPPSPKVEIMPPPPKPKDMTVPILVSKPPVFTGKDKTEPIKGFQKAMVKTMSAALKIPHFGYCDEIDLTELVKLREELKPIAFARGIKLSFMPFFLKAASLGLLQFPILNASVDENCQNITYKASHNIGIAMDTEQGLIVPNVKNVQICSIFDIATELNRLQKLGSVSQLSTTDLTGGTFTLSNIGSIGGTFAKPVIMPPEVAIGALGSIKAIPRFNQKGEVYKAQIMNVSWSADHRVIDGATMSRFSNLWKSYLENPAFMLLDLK
UniProt O60911: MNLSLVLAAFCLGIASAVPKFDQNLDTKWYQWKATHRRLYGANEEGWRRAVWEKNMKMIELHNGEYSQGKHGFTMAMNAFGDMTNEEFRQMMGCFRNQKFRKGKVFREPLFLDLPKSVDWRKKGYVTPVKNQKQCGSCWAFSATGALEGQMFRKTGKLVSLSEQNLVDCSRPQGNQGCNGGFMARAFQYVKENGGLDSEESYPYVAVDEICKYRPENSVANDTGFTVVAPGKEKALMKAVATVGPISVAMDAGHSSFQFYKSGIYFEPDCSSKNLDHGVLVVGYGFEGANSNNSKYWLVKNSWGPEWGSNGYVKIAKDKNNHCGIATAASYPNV
UniProt Q9NSA3: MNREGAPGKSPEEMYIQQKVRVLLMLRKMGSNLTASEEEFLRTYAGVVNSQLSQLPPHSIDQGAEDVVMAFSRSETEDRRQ
UniProt P17812: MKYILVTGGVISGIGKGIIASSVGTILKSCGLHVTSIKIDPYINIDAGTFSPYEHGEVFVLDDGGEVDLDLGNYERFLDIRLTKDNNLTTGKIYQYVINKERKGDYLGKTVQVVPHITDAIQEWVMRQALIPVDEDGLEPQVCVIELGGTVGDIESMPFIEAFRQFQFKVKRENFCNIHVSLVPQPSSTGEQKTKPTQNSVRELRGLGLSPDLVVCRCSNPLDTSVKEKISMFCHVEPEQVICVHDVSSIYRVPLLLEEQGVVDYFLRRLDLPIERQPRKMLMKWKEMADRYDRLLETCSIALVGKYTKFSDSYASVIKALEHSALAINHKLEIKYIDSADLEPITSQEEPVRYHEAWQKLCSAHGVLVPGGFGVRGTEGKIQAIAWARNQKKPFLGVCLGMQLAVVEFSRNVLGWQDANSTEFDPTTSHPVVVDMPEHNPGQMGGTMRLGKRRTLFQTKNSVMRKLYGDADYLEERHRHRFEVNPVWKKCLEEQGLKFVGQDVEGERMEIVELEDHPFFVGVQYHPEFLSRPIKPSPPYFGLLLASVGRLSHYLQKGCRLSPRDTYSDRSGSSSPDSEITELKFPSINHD
UniProt O60931: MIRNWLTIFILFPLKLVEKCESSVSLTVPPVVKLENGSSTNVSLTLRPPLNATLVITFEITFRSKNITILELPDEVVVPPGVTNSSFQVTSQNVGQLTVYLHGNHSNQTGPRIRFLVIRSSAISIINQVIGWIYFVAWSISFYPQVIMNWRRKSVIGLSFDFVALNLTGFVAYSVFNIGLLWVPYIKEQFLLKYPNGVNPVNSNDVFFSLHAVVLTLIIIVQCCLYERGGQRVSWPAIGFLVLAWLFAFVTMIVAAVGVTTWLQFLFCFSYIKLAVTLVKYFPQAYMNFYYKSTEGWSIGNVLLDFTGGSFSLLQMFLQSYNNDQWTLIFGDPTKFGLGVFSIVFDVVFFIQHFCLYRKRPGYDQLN
UniProt Q9H9R9: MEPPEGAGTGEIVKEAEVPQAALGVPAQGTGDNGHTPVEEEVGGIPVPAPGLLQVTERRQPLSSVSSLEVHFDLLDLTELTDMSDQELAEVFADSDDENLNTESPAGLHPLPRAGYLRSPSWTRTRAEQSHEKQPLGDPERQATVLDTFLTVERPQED
UniProt Q15828: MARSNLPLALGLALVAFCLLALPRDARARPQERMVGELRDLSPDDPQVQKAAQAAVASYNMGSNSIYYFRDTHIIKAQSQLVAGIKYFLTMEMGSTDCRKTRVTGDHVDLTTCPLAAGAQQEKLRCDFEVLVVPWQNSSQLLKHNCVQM
UniProt Q9BWK5: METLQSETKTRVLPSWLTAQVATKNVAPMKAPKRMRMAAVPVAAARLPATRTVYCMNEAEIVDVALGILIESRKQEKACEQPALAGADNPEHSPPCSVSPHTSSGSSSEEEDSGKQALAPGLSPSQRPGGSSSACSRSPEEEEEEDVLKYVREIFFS

Tests used:
Assay in all cases: log2 fold change, soluble protein after heating vs DMSO (PISA); higher = thermal stabilisation; K562 cells, 10 uM, 30 min; active = over 0.2 and 3.5 SD of the protein, either way, in both replicates (recomputed)
saracatinib = compound: CN1CCN(CCOc2cc(OC3CCOCC3)c3c(Nc4c(Cl)ccc5c4OCO5)ncnc3c2)CC1 [saracatinib]
Summary of the method: (§1)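 For each measurement, 10 μM compound was applied for 30 min to K562 cells at 2×10^6 cells/mL. Aliquots were heated for 3 min across 48°C-58°C, pooled, and extracted in PBS with 0.5% NP-40 at 4°C; the supernatant after 21,000xg for 90 min was soluble protein. This was quantified by TMTpro 16plex LC-MS/MS with channel sums equalised, and thermal stability was reported relative to control samples from duplicates, on a log2 fold-change scale.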

sotrastaurin = compound: CN1CCN(c2nc(C3=C(c4c[nH]c5ccccc45)C(=O)NC3=O)c3ccccc3n2)CC1 [sotrastaurin]
Summary of the method: as §1

Tubastatin A = compound: CN1CCc2c(c3ccccc3n2Cc2ccc(C(=O)NO)cc2)C1 [Tubastatin A]
Summary of the method: as §1

[1] = compound: CNC(=O)C1=CC=CC=C1NC2=NC(=NC=C2Cl)NC3=C(C=C(C=C3)N4CCOCC4)OC
Summary of the method: as §1

defactinib = compound: CNC(=O)c1ccc(Nc2ncc(C(F)(F)F)c(NCc3nccnc3N(C)S(C)(=O)=O)n2)cc1 [defactinib]
Summary of the method: as §1

rucaparib = compound: CNCc1ccc(-c2[nH]c3cc(F)cc4c3c2CCNC4=O)cc1 [rucaparib]
Summary of the method: as §1

[2] = compound: CNc1nc(-c2ccc3c(N)n[nH]c3c2)cc(N2C[C@@H](C(=O)NC3CCCCC3)CC[C@H]2C)n1
Summary of the method: as §1

encorafenib = compound: COC(=O)N[C@@H](C)CNc1nccc(-c2cn(C(C)C)nc2-c2cc(Cl)cc(NS(C)(=O)=O)c2F)n1 [encorafenib]
Summary of the method: as §1

[3] = compound: COC(=O)[C@H](CCSC)NC(=O)C1=C(C=C(C=C1)NC[C@H](CS)N)C2=CC=CC=C2
Summary of the method: as §1

[4] = compound: COC1=CC=C(C=C1)CN2C=CC3=C2C=C(C=C3)C(=O)NO
Summary of the method: as §1

filanesib = compound: CON(C)C(=O)N1N=C(c2cc(F)ccc2F)S[C@@]1(CCCN)c1ccccc1 [filanesib]
Summary of the method: as §1

zotarolimus = compound: CO[C@H]1C[C@@H]2CC[C@@H](C)[C@@](O)(O2)C(=O)C(=O)N2CCCC[C@H]2C(=O)O[C@H]([C@H](C)C[C@@H]2CC[C@H](n3cnnn3)[C@H](OC)C2)CC(=O)[C@H](C)/C=C(\C)[C@@H](O)[C@@H](OC)C(=O)[C@H](C)C[C@H](C)/C=C/C=C/C=C/1C [zotarolimus]
Summary of the method: as §1

idasanutlin = compound: COc1cc(C(=O)O)ccc1NC(=O)[C@@H]1N[C@@H](CC(C)(C)C)[C@](C#N)(c2ccc(Cl)cc2F)[C@H]1c1cccc(Cl)c1F [idasanutlin]
Summary of the method: as §1

alisertib = compound: COc1cc(Nc2ncc3c(n2)-c2ccc(Cl)cc2C(c2c(F)cccc2OC)=NC3)ccc1C(=O)O [alisertib]
Summary of the method: as §1

[5] = compound: COc1cc2nc(-c3cc(F)ccc3O)nc(N[C@@H]3CNC[C@H]3C(C)(C)O)c2cc1OC
Summary of the method: as §1

gefitinib = compound: COc1cc2ncnc(Nc3ccc(F)c(Cl)c3)c2cc1OCCCN1CCOCC1 [gefitinib]
Summary of the method: as §1

[6] = compound: COc1cccc2cc(-c3nc([C@H]4CC[C@H](C(=O)O)CC4)n4ncnc(N)c34)[nH]c12
Summary of the method: as §1

lapatinib = compound: CS(=O)(=O)CCNCc1ccc(-c2ccc3ncnc(Nc4ccc(OCc5cccc(F)c5)c(Cl)c4)c3c2)o1 [lapatinib]
Summary of the method: as §1

pictilisib = compound: CS(=O)(=O)N1CCN(Cc2cc3nc(-c4cccc5[nH]ncc45)nc(N4CCOCC4)c3s2)CC1 [pictilisib]
Summary of the method: as §1

alvocidib = compound: CN1CC[C@H](c2c(O)cc(O)c3c(=O)cc(-c4ccccc4Cl)oc23)[C@H](O)C1 [alvocidib]
Summary of the method: as §1

Row | Target | log2 fold change (saracatinib) | log2 fold change (sotrastaurin) | log2 fold change (Tubastatin A) | log2 fold change [1] | log2 fold change (defactinib) | log2 fold change (rucaparib) | log2 fold change [2] | log2 fold change (encorafenib) | log2 fold change [3] | log2 fold change [4] | log2 fold change (filanesib) | log2 fold change (zotarolimus) | log2 fold change (idasanutlin) | log2 fold change (alisertib) | log2 fold change [5] | log2 fold change (gefitinib) | log2 fold change [6] | log2 fold change (lapatinib) | log2 fold change (pictilisib) | log2 fold change (alvocidib)
1 | CYFIP1 (UniProt Q7L576) | inactive: -0.023 | inactive: -0.026 | inactive: 0.006 | inactive: -0.001 | inactive: -0.049 | inactive: 0.025 | inactive: 0 | inactive: -0.005 | inactive: -0.013 | inactive: 0.053 | inactive: -0.027 | inactive: 0.039 | inactive: -0.028 | inactive: 0.061 | inactive: -0.004 | inactive: 0.008 | inactive: 0.013 | inactive: 0.023 | inactive: 0.097 | 
2 | CYB561A3 isoform 2 (UniProt Q8NBI2) | inactive: 0.019 | inactive: 0.001 | inactive: 0.047 | inactive: 0.025 |  | active: 0.395 | inactive: -0.068 | inactive: -0.014 |  | inactive: -0.026 | inactive: -0.073 | inactive: 0.011 | inactive: -0.066 | inactive: 0.041 | inactive: 0.023 | inactive: -0.06 | inactive: 0.088 | inactive: -0.019 | inactive: 0.263 | 
3 | CYP51A1 (UniProt Q16850) | inactive: -0.072 | inactive: -0.029 | inactive: -0.024 | inactive: 0.065 | inactive: 0 | inactive: 0.162 | inactive: 0.212 | inactive: 0.029 | inactive: -0.135 | inactive: -0.035 | inactive: 0.217 | inactive: -0.11 | inactive: 0.099 | inactive: -0.025 | inactive: -0.005 | inactive: 0.009 | inactive: -0.105 | active: 0.401 | inactive: -0.216 | 
4 | CUEDC2 (UniProt Q9H467) | inactive: -0.003 | inactive: -0.045 | inactive: 0.197 | inactive: -0.036 | inactive: -0.067 | inactive: -0.033 | active: -0.338 | inactive: 0.071 | inactive: 0.016 | inactive: 0.233 | inactive: 0.018 | inactive: 0 | inactive: 0.005 | inactive: -0.035 | inactive: -0.018 | inactive: 0.168 | inactive: 0.023 | inactive: -0.035 | inactive: 0.014 | 
5 | DAXX (UniProt Q9UER7) | inactive: -0.001 | inactive: -0.078 | inactive: 0.122 | inactive: -0.142 | inactive: 0.005 | inactive: 0.048 | inactive: 0.018 | inactive: -0.097 | inactive: 0.109 | inactive: 0.248 | inactive: 0.008 | inactive: 0.055 | inactive: -0.067 |  | inactive: 0.283 | inactive: -0.125 |  | inactive: -0.05 | inactive: 0.247 | 
6 | DBT (UniProt P11182) | inactive: -0.012 | inactive: 0.025 | inactive: -0.072 | inactive: 0.048 | inactive: 0.071 | inactive: 0.089 | inactive: -0.03 | inactive: 0.046 | inactive: -0.013 | inactive: 0.009 | inactive: 0.012 | inactive: 0.007 | inactive: 0.015 | inactive: 0.003 | inactive: -0.006 | inactive: -0.021 | inactive: 0.039 | inactive: 0.004 | inactive: 0.052 | 
7 | CTSV (UniProt O60911) | inactive: -0.049 | inactive: 0.195 | inactive: 0.016 | inactive: 0.048 | inactive: 0.011 | inactive: -0.056 | inactive: 0.062 | inactive: 0 | inactive: 0.02 | inactive: -0.006 | inactive: -0.112 | inactive: -0.011 | inactive: -0.036 | inactive: -0.042 | inactive: -0.002 | inactive: 0.056 | inactive: 0.141 | inactive: -0.064 | inactive: 0.135 | 
8 | CTNNBIP1 (UniProt Q9NSA3) | inactive: -0.137 |  |  |  |  |  | inactive: -0.02 |  |  |  |  | inactive: 0.037 |  | inactive: -0.009 |  |  | inactive: -0.014 |  | inactive: -0.193 | inactive: 0.042
9 | CTPS1 isoform 2 (UniProt P17812) |  | inactive: -0.078 |  |  |  |  |  |  |  |  | inactive: -0.339 |  | inactive: -0.11 |  |  |  |  |  |  | 
10 | CTNS isoform 2 (UniProt O60931) |  | inactive: 0.07 |  |  | inactive: -0.172 | inactive: -0.104 |  | inactive: 0.101 | inactive: -0.061 |  | inactive: -0.132 | inactive: 0.115 |  | inactive: 0.029 |  |  | inactive: 0.081 |  |  | inactive: 0.004
11 | DCAF12 (UniProt Q5T6F0) |  | inactive: 0.058 |  |  |  | inactive: 0.199 |  | inactive: 0.112 |  |  | inactive: -0.037 |  |  | inactive: 0.073 |  |  | inactive: 0.036 |  | inactive: 0.16 | 
12 | CTBP1 (UniProt E7ESU7) |  |  |  | inactive: -0.015 |  |  |  |  |  |  |  |  |  |  |  |  |  |  |  | 
13 | DBNDD1 isoform 3 (UniProt Q9H9R9) |  | inactive: -0.214 |  | inactive: -0.132 |  |  |  |  |  |  | inactive: -0.011 |  |  |  |  |  |  |  |  | 
14 | CST6 (UniProt Q15828) |  | inactive: -0.013 | inactive: -0.142 |  |  | inactive: -0.161 |  | inactive: -0.338 |  |  | inactive: -0.288 |  |  | inactive: 1.23 |  | inactive: 0.108 | inactive: -0.025 |  |  | 
15 | CYREN (UniProt Q9BWK5) |  |  |  | inactive: 0.206 | inactive: -0.098 | inactive: 0.005 |  | inactive: 0.098 | inactive: -0.085 | inactive: 0.002 |  |  |  | inactive: 0.185 |  | inactive: -0.009 | inactive: 0.157 |  | inactive: 0.094 | 
16 | DAAM2 (UniProt Q86T65) | inactive: 0.054 |  |  | inactive: -0.111 |  |  | inactive: -0.022 |  |  | inactive: -0.121 |  |  |  |  |  | inactive: 0.029 |  |  |  | 

Some of the entries above, reformatted:
Row	Target	log2 fold change (saracatinib)	log2 fold change (sotrastaurin)	log2 fold change (Tubastatin A)	log2 fold change [1]	log2 fold change (defactinib)	log2 fold change (rucaparib)	log2 fold change [2]	log2 fold change (encorafenib)	log2 fold change [3]	log2 fold change [4]	log2 fold change (filanesib)	log2 fold change (zotarolimus)	log2 fold change (idasanutlin)	log2 fold change (alisertib)	log2 fold change [5]	log2 fold change (gefitinib)	log2 fold change [6]	log2 fold change (lapatinib)	log2 fold change (pictilisib)	log2 fold change (alvocidib)
6	DBT (UniProt P11182)	inactive: -0.012	inactive: 0.025	inactive: -0.072	inactive: 0.048	inactive: 0.071	inactive: 0.089	inactive: -0.03	inactive: 0.046	inactive: -0.013	inactive: 0.009	inactive: 0.012	inactive: 0.007	inactive: 0.015	inactive: 0.003	inactive: -0.006	inactive: -0.021	inactive: 0.039	inactive: 0.004	inactive: 0.052	
7	CTSV (UniProt O60911)	inactive: -0.049	inactive: 0.195	inactive: 0.016	inactive: 0.048	inactive: 0.011	inactive: -0.056	inactive: 0.062	inactive: 0	inactive: 0.02	inactive: -0.006	inactive: -0.112	inactive: -0.011	inactive: -0.036	inactive: -0.042	inactive: -0.002	inactive: 0.056	inactive: 0.141	inactive: -0.064	inactive: 0.135	
13	DBNDD1 isoform 3 (UniProt Q9H9R9)		inactive: -0.214		inactive: -0.132							inactive: -0.011									
